## Screening data, single-dose tests

Data taken from ChEMBL document CHEMBL3988442, “University of Dundee, Small-Polar-MMV Screening Library” (2021).

Each number is a percent effect as filed. The record does not define 0% and 100%; most values in the screen are far below 50% and negative numbers occur (in some assays of this library far below -100). The compounds are a random part of those screened. Two or more numbers in one place are separate tests of the same structure; such repeats can differ widely.

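Phenotypic screen: M. tuberculosis growth, cholesterol and DPPC medium, 4 days; the read-out is not stated. Concentration: 50 µM. Direction is inferred from retests: higher values go with more growth inhibition. Size under these conditions: about 69,000 compounds, about 370 of them at 50% or above in at least one test.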

| Compound | percent effect |
|---|---|
| `Cn1c(C2CC2)nc2c1CCN(Cc1nc(Cc3ccccc3)no1)C2` | -2.544% |
| `CCOC(=O)CN1CCC(NC(=O)OC(C)(C)C)CC1` | -12.47% |
| `[H][C@@]12CN(Cc3ccccn3)C[C@]1([H])N(CCCc1ccc(F)cc1)C(=O)O2` | 16.27% |
| `c1ccc(-c2nc(CN3CCCC3Cn3cncn3)no2)cc1` (configuration not stated) | 10.44% |
| `COCC(C)(O)CNC(=O)c1cc(-c2cc(OC)ccc2OC)nn1C` (configuration not stated) | -6.645% |
| `CCSC(C)C(=O)N1CCC(c2nn(C)c(=O)n2-c2ccccc2)CC1` (configuration not stated) | 2.857% |
| `O=C1CN(S(=O)(=O)c2ccc(F)cc2)CC(O)CN1CC1CC1` (configuration not stated) | 7.416% |
| `[H][C@@]12CCCO[C@]1([H])[C@@H](OCc1cccnc1)CN2C(=O)C1=CCCC1` | -0.07309% |
| `CC(C)n1[nH]c(=O)c2c1NC(=O)CSC2c1ccc(OCC(N)=O)cc1` (configuration not stated) | 9.638% |
| `CCCc1nc(C)cc(N2CCNC(C(=O)Nc3ccc(C)nc3)C2)n1` (configuration not stated) | 8.355% |
| `O=C(O)C(F)(F)F.[H][C@@]12CN(S(=O)(=O)c3ccc(C#N)cc3)C[C@]1([H])OCCN2C` | -23.63% |
| `COCCN1C(=O)CC[C@]12CC[C@@H](NCc1cccc(C)n1)CC2.O=C(O)C(F)(F)F` | -4.106% |
| `CCCOCC1CCN(C(=O)Cn2cccc(OC)c2=O)C1` (configuration not stated) | -8.791% and 1.462% |
| `CC(CO)CN(Cc1ccccc1)Cc1c[nH]cn1` (configuration not stated) | 8.763% |
| `CC(C)S(=O)(=O)N1C[C@@H](O)[C@H](N(C)Cc2ccc(F)cc2)C1` | -5.853% and -19.75% |
| `CN(C)C(=O)CC1CC2(CCN(CC3CC3)CC2)c2cc(F)ccc21.O=C(O)C(F)(F)F` (configuration not stated) | -13.98% |
| `O=C(O)C(F)(F)F.[H][C@]12CCC(=O)N(c3cccnc3)[C@@]1([H])CCN2C(=O)Cc1cccs1` | -31.33% |
| `Cc1ccccc1N1CCN(C(=O)CC(C)C)CC1` | -4.97% |
| `Cc1cccc(C(=O)NC(CN2CCCC2=O)c2ccccc2)n1` (configuration not stated) | -7.18% |
| `CC(=O)N1CCc2c(nc(N(C)C)nc2NCc2cccs2)C1` | 9.47% |
| `O=C(O)C(F)(F)F.O=C(O)C(F)(F)F.c1cncc(OCc2noc3c2CN(Cc2ccco2)CC3)c1` | -10.99% |
| `CC(=O)N1CCCN(C(=O)c2cnc(OC(C)C)c(Cl)c2)CC1` | -7.449% |
| `O=S(=O)(NCCCn1cncn1)c1ccc2c(c1)CCC2` | 7.141% |
| `CCc1cc(NC(=O)c2cccc(OCC(F)(F)F)n2)[nH]n1` | 7.704% |
| `Cc1ccc(-c2cc(C(=O)NCC3CCOC3)n[nH]2)s1` (configuration not stated) | -25.08% |
| `COC(=O)CCNC(=O)c1cccc(C(=O)N(C)c2ccccc2)c1` | -40.76% |
| `O=C1c2cnc(N3CCCCC3)nc2CN1c1ccc2c(c1)OCO2` | -33.27% |
| `COC1COC2(CCN(Cc3ccccc3C)CC2)C1.O=C(O)C(F)(F)F` (configuration not stated) | -10.57% |
| `CC1CCN(c2ccc(CNC(=O)NCCn3ccnc3)cn2)CC1` | -7.814% |
| `Cc1n[nH]c(C)c1C1COCCN1C(=O)c1cc(Cl)c[nH]1` (configuration not stated) | 4.509% |
| `O=C(NCC(=O)N1CC2(CCCC2)c2c(F)cccc21)C1CC1` | 25.39% |
| `Cc1noc(C)c1C(=O)N1CCSc2ccc(Cl)cc21` | -2.438% |
| `CN(Cc1noc(C2CC2)n1)C1CCN(Cc2cccc(F)c2F)C1` (configuration not stated) | -19.21% |
| `Cc1ccc(CN2CCN(C3CSCCSC3)CC2CCO)o1` (configuration not stated) | -18.03% |
| `O=C(O)c1nnn(Cc2ccc(F)cc2)c1-c1cccnc1` | -1.883% and -0.03436% |
| `CN(C)C(=O)CN1CCC2(C1)CN(CC1CCOCC1)C2` | 17.24% |
| `CCCN1CCC(NCc2ccncc2)CC1` | -17.22% |
| `Cc1ccc(C(C)NC(=O)Nc2ccccc2CN2CCOCC2)o1` (configuration not stated) | -2.83% |
| `Cn1c(=O)c2c(n3ncnc13)NC(=O)CC2c1cccc(Br)c1` (configuration not stated) | 16.24% |
| `Cc1cc(CNC(=O)CCN2CCN(c3ccccn3)CC2)c(C)o1` | -2.62% |
| `CCCc1nc(C(=O)NCc2cccnc2-n2cncn2)cs1` | -0.6067% and -9.84% |
| `Cc1nc(-c2cc(C(=O)O)co2)cs1` | -2.492% |
| `Fc1cc(F)cc(CN2CCC(c3cc4ncccc4cn3)CC2)c1` | 9.448% |
| `O=C(N1CCCC(n2cncn2)C1)C1(c2ccccc2F)CCCC1` (configuration not stated) | -6.243% |
| `O=C(Cn1ccc2sccc2c1=O)NC1CCCCC1` | -5.92% |
| `CCCC(=O)NCC(=O)NC(c1ccc(Cl)cc1)C(F)(F)F` (configuration not stated) | -13.99% |
| `O=C1NC[C@]2(CC[C@@H](C(=O)N3CCC(O)CC3)CC2)Oc2ccccc21` | 6.735% |
| `CN(Cc1ccccc1)c1ncccc1CNC1CN2CCC1CC2` (configuration not stated) | 30.32% |
| `Cc1ccc(F)cc1-n1c(CCCN2CCOCC2)n[nH]c1=O` | 12.93% |
| `[H][C@]12CCN(C(C)=O)[C@@]1([H])CC[C@H](COCC(=O)N1CCCC1)O2` | 2.664% |
| `Cc1nnc(NC(=O)CN2CCOC(Cn3cccn3)C2)s1` (configuration not stated) | 20.03% |
| `O=C(NC1CCCC1)c1cc(Cn2cnc3ccccc32)on1` | 12.56% |
| `CCC(=O)N(C)C1CCN(Cc2ncc(C)c(OC)c2C)CC1` | -24.79% |
| `CC(=O)c1ccc(OCC(=O)NS(=O)(=O)c2cccnc2)cc1` | -29.26% |
| `CN(Cc1cncnc1)Cc1cn2c(n1)CN(C1CCOC1)CC2.O=C(O)C(F)(F)F.O=C(O)C(F)(F)F` (configuration not stated) | 15.34% |
| `O=C(O)c1ccn(-c2ccccc2NS(=O)(=O)c2cccc(Cl)c2F)n1` | 4.718% and -11.75% |
| `COCCN1CCc2cc(C(=O)NCC3CC3)c(NC(C)C)nc2CC1.O=C(O)C(F)(F)F.O=C(O)C(F)(F)F` | 31.38% |
| `Cc1ccc2c(n1)N(CC1CC1)CCN(Cc1cnn(C)c1)C2` | -15.56% |
| `COCC1CN(Cc2cc(C)on2)Cc2cn(CC3CC3)nc21` (configuration not stated) | 0.2402% |
| `CC(Cn1cccn1)NC(=O)NCCc1ccsc1` (configuration not stated) | -6.615% |
| `COCCCN1CCC(NC(=O)C2CC2)CC1` | 2.633% and 9.354% |
| `CN1C(=O)CCC12CCN(Cc1ccco1)CC2` | -6.424% |
| `Cc1ccc2c(c1)C(=O)NCC1(CCN(C(=O)c3ccccn3)CC1)O2` | -13.08% |
| `CC(C)N(C)Cc1cnc2n1CCN(C(=O)Cc1ccsc1)C2.O=C(O)C(F)(F)F` | 3.052% |
| `[H][C@@]12CS(=O)(=O)C[C@]1([H])N(C(=O)c1ccc(COC)o1)CCN2C(=O)CC` | -24.85% |
| `Cc1ccc(CN(CCN(C)C)C(=O)Nc2cnn(C)c2)s1` | -11.2% |
| `Cc1nn(C)c2nc(-c3ccccn3)nc(NC[C@@H]3CCCO3)c12` | 0.5404% |
| `O=C(NCC(O)C1CC1)Nc1cnn(Cc2ccccc2)c1` (configuration not stated) | -3.837% |
| `Cc1cnn(CC(=O)Nc2cc(-n3nnnc3C3CC3)ccc2F)c1` | 9.747% |
| `Cc1cc(CN2CCC(N(C)Cc3nnc(C4CC4)n3C)C2)on1` (configuration not stated) | -4.769% |
| `Fc1cnccc1CN1CCC2(CCN2c2ncccn2)C1.O=C(O)C(F)(F)F` (configuration not stated) | -8.735% and 12.23% |
| `Cc1cnn(Cc2cc(F)ccc2F)c1NC(=O)C1CCOCC1` | -15.52% |
| `CCOc1ccc(CN2CCCC(c3nn(C)c(=O)n3CC)C2)cn1` (configuration not stated) | 1.343% |
| `c1cnnc(N2CCCC2CNCc2nc(-c3cccs3)no2)c1` (configuration not stated) | 3.318% |
| `CC(=O)N1CCC(c2ncc3c(n2)CCN(C(=O)c2ccccc2)C3)C1` (configuration not stated) | 13.84% |
| `COc1cccc(C2(NC(=O)CCNC(C)=O)CC2)c1` | -11.03% |
| `CC(C)c1cc(NC(=O)CN2CCC(N3CCCCC3)CC2)on1` | 11.69% |
| `Cc1nc(C)n(CC2CCCN(CCOc3ccccc3F)C2)n1` (configuration not stated) | -17.8% |
| `Cc1cc(C(=O)NCc2ccc(N3CCCC(C(N)=O)C3)cc2)no1` (configuration not stated) | 2.832% |
| `CC(Cc1ccco1)NC(=O)NCc1ncnn1C` (configuration not stated) | -9.354% and -27.44% |
| `Cc1cc(C2CCCN(S(=O)(=O)N(C)C)C2)ccn1` (configuration not stated) | -25.47% |
| `CN1CCN(c2ncnc3c2CCN(c2ncc(F)cn2)CC3)CC1.O=C(O)C(F)(F)F` | 7.506% |

The first 7 entries again:

Compound,percent effect
Cn1c(C2CC2)nc2c1CCN(Cc1nc(Cc3ccccc3)no1)C2,-2.544%
CCOC(=O)CN1CCC(NC(=O)OC(C)(C)C)CC1,-12.47%
[H][C@@]12CN(Cc3ccccn3)C[C@]1([H])N(CCCc1ccc(F)cc1)C(=O)O2,16.27%
c1ccc(-c2nc(CN3CCCC3Cn3cncn3)no2)cc1 (configuration not stated),10.44%
COCC(C)(O)CNC(=O)c1cc(-c2cc(OC)ccc2OC)nn1C (configuration not stated),-6.645%
CCSC(C)C(=O)N1CCC(c2nn(C)c(=O)n2-c2ccccc2)CC1 (configuration not stated),2.857%
O=C1CN(S(=O)(=O)c2ccc(F)cc2)CC(O)CN1CC1CC1 (configuration not stated),7.416%